How the values were obtained:
Format in all cases: cell-based
[1] = tested on: lung SCN (SCLC) and lung adeno (LUAD) cell lines; assay: GDSC drug sensitivity (log IC50), lung SCN versus lung adeno cell lines, Student's t-test
Experimental: (§1) Analogous to the protein and gene expression-based analysis, PCA was performed on the matrix of drug sensitivity IC50 values across lung adeno and lung SCN cell lines using all drugs in the screen. […] The inventors then projected all other cell lines onto this PCA space.
For LUAD and SCLC cell lines, differential sensitivity to each drug was calculated using the Student's t-test. These drugs were then ranked by the t-test statistic. Annotation on drug target and target pathway was obtained from the pharmacogenomics screen published by Iorio et al. From the annotation on drug targets, a list of genes or biological targets was obtained. […] Missing values in the drug sensitivity data were imputed using the weighted average of k-nearest neighbors (n=3). For SCLC and LUAD samples that were used as training data, k-Nearest Neighbors (kNN) imputation was performed on the lung samples alone. kNN imputation was then then performed on all other cell lines together, excluding the SCLC and LUAD samples. PCA was performed on the imputed data. The inventors then projected the drug data for all lines onto the PCA defined on lung SCLC and LUAD, including cancer of hematological and neuroectodermal origin. Projected points (all lines excluding lung SCLC and LUAD) in the drug sensitivity plot were annotated by their expression projection values. […]

[2] = tested on: blood cancer cell lines versus non-blood cell lines; assay: GDSC drug sensitivity (log IC50), blood versus non-blood cell lines
Experimental: as §1
(§2) Particularly interesting were drugs with high differential sensitivity in both lung SCN versus adeno, and blood versus non-blood cell line comparisons, supporting that the drug acts through a shared SCN-blood mechanism. […] Of note, blood cancers and the majority of, but not all, SCN cancers grow in suspension in vitro. […] The parallel drug sensitivities of lung SCN and blood cancers (R=0.68) was maintained when the analysis was restricted to the 31% of SCLC lines in the drug sensitivity database that grow adherent in culture (R=0.69; n=20 adherent, n=6 semi-adherent, n=38 suspension) (FIG. 15D). Furthermore, SRBCTs largely grow adherent in culture (n=50 adherent, n=6 semi-adherent, n=6 suspension).
For LUAD and SCLC cell lines, differential sensitivity to each drug was calculated using the Student's t-test. These drugs were then ranked by the t-test statistic. Annotation on drug target and target pathway was obtained from the pharmacogenomics screen published by Iorio et al. From the annotation on drug targets, a list of genes or biological targets was obtained. […]

[3] = tested on: small-round-blue cell tumor (SRBCT) cell lines; assay: GDSC drug sensitivity (log IC50), SRBCT cell lines
Description: as §2
For LUAD and SCLC cell lines, differential sensitivity to each drug was calculated using the Student's t-test. These drugs were then ranked by the t-test statistic. Annotation on drug target and target pathway was obtained from the pharmacogenomics screen published by Iorio et al. From the annotation on drug targets, a list of genes or biological targets was obtained. […] Missing values in the drug sensitivity data were imputed using the weighted average of k-nearest neighbors (n=3). […]

## Nc1ccc(C(=O)Nc2cccc(-c3nc(N4CCOCC4)c4oc5ncccc5c4n3)c2)cn1 [YM201636]
[1]
  SCN - SCLC vs LUAD lung cancer signlogp: 1.35
[2]
  Blood vs OTHER signlogp: 39.68
[3]
  SRBCT vs OTHER signlogp: 7.71

Reference: patent publication US20220244263A1, “METHODS FOR TREATING SMALL CELL NEUROENDOCRINE AND RELATED CANCERS” (The Regents of the University of California, priority 2019, published 2022)
